Among the data in patent US20170044234A1 (INSERM INSTITUT NATIONAL DE LA SANTE ET DE LA RECHERCHE …, published 2017) are binding values, retold here.

The target of assay [1] is GFP-fused CD95^1-303 (human) (UniProt P25445). The assay is described as follows: CD95 immunoprecipitation from HEK cells co-transfected with GFP-fused CD95 constructs and PLCγ1, stimulated with CD95L, immunoblot.
Assay [2] has as its target GFP-fused wild type human CD95 (human) (UniProt P25445). Described as above.
The next assay deals with T1, GFP-fused CD95^1-210 (human, UniProt P25445 17-226).
T1 construct: also called CD95 construct devoid of DD; not shown: GFP of vector pEGFP-N1 (Clontech), fused C-terminally
T1 sequence: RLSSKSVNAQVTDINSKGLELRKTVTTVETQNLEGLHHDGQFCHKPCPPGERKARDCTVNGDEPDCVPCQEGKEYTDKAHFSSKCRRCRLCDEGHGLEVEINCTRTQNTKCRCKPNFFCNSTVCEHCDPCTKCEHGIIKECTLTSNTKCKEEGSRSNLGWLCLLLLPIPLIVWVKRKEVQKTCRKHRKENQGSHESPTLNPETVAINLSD
The assay is described as above.

The target of assay [3] is human CD95 (endogenous receptor of T cells and HEK cells) (human) (UniProt P25445). The assay is described as follows: CD95 immunoprecipitation from stimulated T cells, immunoblot. On the technique in general: In western blotting, separated proteins are transferred to a membrane and probed.
The target is the same in assay [4]. Kind of assay: CD95 immunoprecipitation from CEM cells stimulated with CD95L, immunoblot.

No constants are given. Whether binding was seen depends on the method and setting. Some results given as binding are weak or reduced against the parent protein; the word gives no strength. For some assays here: Tags and fused reporters may be left off the sequences shown.

B1: Myc-tagged full-length human PLCγ1 (enzyme, UniProt P19174 1-1290, looked up, not shown: small tags and cut ends)
chain: MAGAASPCANGCGPGAPSDAEVLHLCRSLEVGTVMTLFYSKKSQRPERKTFQVKLETRQITWSRGADKIEGAIDIREIKEIRPGKTSRDFDRYQEDPAFRPDQSHCFVILYGMEFRLKTLSLQATSEDEVNMWIKGLTWLMEDTLQAPTPLQIERWLRKQFYSVDRNREDRISAKDLKNMLSQVNYRVPNMRFLRERLTDLEQRSGDITYGQFAQLYRSLMYSAQKTMDLPFLEASTLRAGERPELCRVSLPEFQQFLLDYQGELWAVDRLQVQEFMLSFLRDPLREIEEPYFFLDEFVTFLFSKENSVWNSQLDAVCPDTMNNPLSHYWISSSHNTYLTGDQFSSESSLEAYARCLRMGCRCIELDCWDGPDGMPVIYHGHTLTTKIKFSDVLHTIKEHAFVASEYPVILSIEDHCSIAQQRNMAQYFKKVLGDTLLTKPVEISADGLPSPNQLKRKILIKHKKLAEGSAYEEVPTSMMYSENDISNSIKNGILYLEDPVNHEWYPHYFVLTSSKIYYSEETSSDQGNEDEEEPKEVSSSTELHSNEKWFHGKLGAGRDGRHIAERLLTEYCIETGAPDGSFLVRESETFVGDYTLSFWRNGKVQHCRIHSRQDAGTPKFFLTDNLVFDSLYDLITHYQQVPLRCNEFEMRLSEPVPQTNAHESKEWYHASLTRAQAEHMLMRVPRDGAFLVRKRNEPNSYAISFRAEGKIKHCRVQQEGQTVMLGNSEFDSLVDLISYYEKHPLYRKMKLRYPINEEALEKIGTAEPDYGALYEGRNPGFYVEANPMPTFKCAVKALFDYKAQREDELTFIKSAIIQNVEKQEGGWWRGDYGGKKQLWFPSNYVEEMVNPVALEPEREHLDENSPLGDLLRGVLDVPACQIAIRPEGKNNRLFVFSISMASVAHWSLDVAADSQEELQDWVKKIREVAQTADARLTEGKIMERRKKIALELSELVVYCRPVPFDEEKIGTERACYRDMSSFPETKAEKYVNKAKGKKFLQYNRLQLSRIYPKGQRLDSSNYDPLPMWICGSQLVALNFQTPDKPMQMNQALFMTGRHCGYVLQPSTMRDEAFDPFDKSSLRGLEPCAISIEVLGARHLPKNGRGIVCPFVEIEVAGAEYDSTKQKTEFVVDNGLNPVWPAKPFHFQISNPEFAFLRFVVYEEDMFSDQNFLAQATFPVKGLKTGYRAVPLKNNYSEDLELASLLIKIDIFPAKENGDLSPFSGTSLRERGSDASGQLFHGRAREGSFESRYQQPFEDFRISQEHLADHFDSRERRAPRRTRVNGDNRL
As to B1, the binding entry (in assay [1]; in assay [2]; in the assay with GFP-fused CD95^1-210) was “binds” in each case.

B2: phospholipase Cγ1 (PLCγ1), endogenous in human T cells (enzyme, UniProt P19174 2-1290, looked up)
chain: AGAASPCANGCGPGAPSDAEVLHLCRSLEVGTVMTLFYSKKSQRPERKTFQVKLETRQITWSRGADKIEGAIDIREIKEIRPGKTSRDFDRYQEDPAFRPDQSHCFVILYGMEFRLKTLSLQATSEDEVNMWIKGLTWLMEDTLQAPTPLQIERWLRKQFYSVDRNREDRISAKDLKNMLSQVNYRVPNMRFLRERLTDLEQRSGDITYGQFAQLYRSLMYSAQKTMDLPFLEASTLRAGERPELCRVSLPEFQQFLLDYQGELWAVDRLQVQEFMLSFLRDPLREIEEPYFFLDEFVTFLFSKENSVWNSQLDAVCPDTMNNPLSHYWISSSHNTYLTGDQFSSESSLEAYARCLRMGCRCIELDCWDGPDGMPVIYHGHTLTTKIKFSDVLHTIKEHAFVASEYPVILSIEDHCSIAQQRNMAQYFKKVLGDTLLTKPVEISADGLPSPNQLKRKILIKHKKLAEGSAYEEVPTSMMYSENDISNSIKNGILYLEDPVNHEWYPHYFVLTSSKIYYSEETSSDQGNEDEEEPKEVSSSTELHSNEKWFHGKLGAGRDGRHIAERLLTEYCIETGAPDGSFLVRESETFVGDYTLSFWRNGKVQHCRIHSRQDAGTPKFFLTDNLVFDSLYDLITHYQQVPLRCNEFEMRLSEPVPQTNAHESKEWYHASLTRAQAEHMLMRVPRDGAFLVRKRNEPNSYAISFRAEGKIKHCRVQQEGQTVMLGNSEFDSLVDLISYYEKHPLYRKMKLRYPINEEALEKIGTAEPDYGALYEGRNPGFYVEANPMPTFKCAVKALFDYKAQREDELTFIKSAIIQNVEKQEGGWWRGDYGGKKQLWFPSNYVEEMVNPVALEPEREHLDENSPLGDLLRGVLDVPACQIAIRPEGKNNRLFVFSISMASVAHWSLDVAADSQEELQDWVKKIREVAQTADARLTEGKIMERRKKIALELSELVVYCRPVPFDEEKIGTERACYRDMSSFPETKAEKYVNKAKGKKFLQYNRLQLSRIYPKGQRLDSSNYDPLPMWICGSQLVALNFQTPDKPMQMNQALFMTGRHCGYVLQPSTMRDEAFDPFDKSSLRGLEPCAISIEVLGARHLPKNGRGIVCPFVEIEVAGAEYDSTKQKTEFVVDNGLNPVWPAKPFHFQISNPEFAFLRFVVYEEDMFSDQNFLAQATFPVKGLKTGYRAVPLKNNYSEDLELASLLIKIDIFPAKENGDLSPFSGTSLRERGSDASGQLFHGRAREGSFESRYQQPFEDFRISQEHLADHFDSRERRAPRRTRVNGDNRL
With B2, the binding entry in assay [3] and in assay [4] was “binds” each time.
